Reference: the supplement of paper PMC6078165
Values are relative to the signal before dosing, not to a vehicle control; the signal also falls without drug.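 Labels refer to human fibroblasts, largely primary: uterine (C12385, HUF), lung (H6013), bone (Hs27A), adrenal (HADF), skin (WS1), plus mammary HMF and breast cancer-associated Hs343T. Cancer lines are basal-like or mesenchymal-like triple-negative breast cancer. The paper counts as hits responses shifting over 3x the replicate standard deviation. The tissue of the other fibroblasts is not given here.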

Test system: MDAMB436
Assay: relative JC-1 red fluorescence (viability) vs pre-drug, coculture with fibroblast (fraction); higher = more viable cancer cells
Experimental: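 JC-1 labelled TNBC cells cocultured 1:1 (1,500 cells each) with CellTrace Violet stained primary or stromal fibroblasts in 384-well plates in FluoroBrite medium, treated with one of 42 anticancer drugs at 0.1, 1, 10 or 100 uM. JC-1 red fluorescence (mitochondrial integrity in cancer cells only) was read by plate reader every 8 h for 72 h. Values are normalised to each well's pre-drug value. The stock of one drug was tenfold lower, so its dose labels may be too high.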

O=C(O)C(=O)O.[NH-][C@@H]1CCCC[C@H]1[NH-].[Pt+2] [Oxaliplatin]
relative JC-1 red fluorescence
Conditions	8 h	16 h	24 h	32 h	40 h	48 h	56 h	64 h	72 h
0.1 µM, coculture fibroblast: C12385	0.795	0.763	0.754	0.689	0.66	0.6565	0.652	0.6441	0.6464
0.1 µM, coculture fibroblast: H6013	0.823	0.825	0.829	0.844	0.839	0.885	0.849	0.841	0.795
0.1 µM, coculture fibroblast: H6019	0.74903	0.692	0.675	0.606	0.572	0.558	0.531	0.5	0.47
0.1 µM, coculture fibroblast: H6076	0.764	0.765	0.825	0.816	0.869	0.869	0.918	0.925	0.918
0.1 µM, coculture fibroblast: H6231	0.691	0.662	0.715	0.65	0.658	0.637	0.642	0.637	0.622
0.1 µM, coculture fibroblast: HADF	0.793	0.764	0.744	0.727	0.73	0.765	0.71	0.706	0.676
0.1 µM, coculture fibroblast: HCFa	0.749	0.707	0.68	0.661	0.655	0.683	0.626	0.627	0.569
0.1 µM, coculture fibroblast: HCPF	0.708	0.676	0.714	0.662	0.672	0.661	0.667	0.659	0.662
0.1 µM, coculture fibroblast: HHSteC	0.846	0.85	0.843	0.81	0.818	0.831	0.771	0.7669	0.7099
0.1 µM, coculture fibroblast: HMF	0.726	0.698	0.705	0.675	0.687	0.667	0.699	0.686	0.681
0.1 µM, coculture fibroblast: HPFa	0.905	0.916	0.929	0.907	0.931	0.895	0.905	0.826	0.85
0.1 µM, coculture fibroblast: HUF	0.814	0.763	0.756	0.694	0.659	0.652	0.637	0.638	0.639
0.1 µM, coculture fibroblast: Hs5	0.7622	0.742	0.743	0.708	0.721	0.692	0.72	0.703	0.704
0.1 µM, coculture fibroblast: Hs27A	0.822	0.794	0.802	0.794	0.789	0.875	0.784	0.78	0.705
0.1 µM, coculture fibroblast: Hs343T	0.7316	0.684	0.668	0.639	0.635	0.612	0.638	0.63	0.628
0.1 µM, coculture fibroblast: WS1	0.7985	0.7514	0.743	0.6665	0.65	0.631	0.626	0.614	0.615
1 µM, coculture fibroblast: C12385	0.8133	0.69219	0.6646	0.582	0.5283	0.4991	0.4745	0.4522	0.449
1 µM, coculture fibroblast: H6013	0.84	0.728	0.7	0.691	0.674	0.699	0.655	0.649	0.612
1 µM, coculture fibroblast: H6019	0.748	0.645	0.611	0.526	0.484	0.476	0.44	0.417	0.39
1 µM, coculture fibroblast: H6076	0.771	0.637	0.62353	0.588	0.566	0.543	0.556	0.556	0.554
1 µM, coculture fibroblast: H6231	0.803	0.715	0.651	0.587	0.547	0.51058	0.489	0.46	0.439
1 µM, coculture fibroblast: HADF	0.8156	0.729	0.704	0.667	0.656	0.673	0.614	0.606	0.555
1 µM, coculture fibroblast: HCFa	0.832	0.7071	0.694	0.66	0.633	0.645	0.579	0.567	0.516
1 µM, coculture fibroblast: HCPF	0.77	0.691	0.665	0.603	0.584	0.553	0.535	0.515	0.503
1 µM, coculture fibroblast: HHSteC	0.823	0.727	0.691	0.661	0.636	0.641	0.58	0.556	0.505
1 µM, coculture fibroblast: HMF	0.762	0.629	0.619	0.575	0.561	0.531	0.529	0.518	0.506
1 µM, coculture fibroblast: HPFa	0.875	0.797	0.776	0.734	0.718	0.728	0.651	0.633	0.563
1 µM, coculture fibroblast: HUF	0.8488	0.712	0.703	0.619	0.566	0.533	0.513	0.497	0.487
1 µM, coculture fibroblast: Hs5	0.814	0.705	0.6728	0.614	0.594	0.556	0.5576	0.52968	0.5211
1 µM, coculture fibroblast: Hs27A	0.886	0.836	0.791	0.764	0.73	0.755	0.673	0.638	0.566
1 µM, coculture fibroblast: Hs343T	0.748	0.6248	0.593	0.552	0.533	0.501	0.495	0.49	0.484
1 µM, coculture fibroblast: WS1	0.7956	0.658	0.613	0.524	0.475	0.449	0.422	0.39	0.374
10 µM, coculture fibroblast: C12385	0.762	0.6941	0.66	0.58	0.538	0.507	0.486	0.471	0.461
10 µM, coculture fibroblast: H6013	0.8037	0.7663	0.755	0.75	0.736	0.762	0.731	0.721	0.688
10 µM, coculture fibroblast: H6019	0.764	0.719	0.723	0.664	0.643	0.632	0.622	0.613	0.593
10 µM, coculture fibroblast: H6076	0.676	0.6229	0.618	0.581	0.593	0.577	0.59979	0.602	0.6
10 µM, coculture fibroblast: H6231	0.703	0.585	0.656	0.578	0.583	0.565	0.569	0.557	0.555
10 µM, coculture fibroblast: HADF	0.79	0.771	0.75	0.722	0.72	0.758	0.703	0.686	0.646
10 µM, coculture fibroblast: HCFa	0.768	0.717	0.683	0.646	0.619	0.639	0.573	0.565	0.506
10 µM, coculture fibroblast: HCPF	0.661	0.628	0.635	0.568	0.568	0.535	0.527	0.51	0.505
10 µM, coculture fibroblast: HHSteC	0.787	0.787	0.771	0.743	0.752	0.778	0.722	0.705	0.645
10 µM, coculture fibroblast: HMF	0.673	0.6603	0.675	0.6376	0.646	0.619	0.63	0.612	0.604
10 µM, coculture fibroblast: HPFa	0.912	0.865	0.838	0.8014	0.7929	0.796	0.737	0.721	0.665
10 µM, coculture fibroblast: HUF	0.81	0.7209	0.6782	0.609	0.557	0.529	0.507	0.497	0.485
10 µM, coculture fibroblast: Hs5	0.706	0.646	0.616	0.565	0.553	0.512	0.527	0.503	0.502
10 µM, coculture fibroblast: Hs27A	0.846	0.764	0.739	0.714	0.693	0.749	0.667	0.662	0.595
10 µM, coculture fibroblast: Hs343T	0.675	0.5941	0.5508	0.4993	0.477	0.452	0.454	0.441	0.437
10 µM, coculture fibroblast: WS1	0.766	0.693	0.6555	0.571	0.5353	0.5126	0.495	0.473	0.461
100 µM, coculture fibroblast: C12385	0.841	0.737	0.7096	0.629	0.5824	0.557	0.531	0.5076	0.493
100 µM, coculture fibroblast: H6013	0.894	0.798	0.792	0.774	0.753	0.763	0.7249	0.707	0.667
100 µM, coculture fibroblast: H6019	0.776	0.7265	0.7167	0.643	0.594	0.566	0.531	0.504	0.476
100 µM, coculture fibroblast: H6076	0.821	0.712	0.653	0.602	0.566	0.5409	0.528	0.513	0.508
100 µM, coculture fibroblast: H6231	0.798	0.746	0.663	0.617	0.585	0.5402	0.5214	0.502	0.487
100 µM, coculture fibroblast: HADF	0.8516	0.768	0.774	0.755	0.756	0.777	0.718	0.719	0.665
100 µM, coculture fibroblast: HCFa	0.859	0.784	0.768	0.756	0.733	0.752	0.693	0.69	0.636
100 µM, coculture fibroblast: HCPF	0.782	0.7175	0.648	0.595	0.5667	0.5318	0.5041	0.494	0.474
100 µM, coculture fibroblast: HHSteC	0.8695	0.804	0.7888	0.754	0.746	0.757	0.694	0.677	0.627
100 µM, coculture fibroblast: HMF	0.785	0.707	0.615	0.58	0.564	0.532	0.5265	0.518	0.51
100 µM, coculture fibroblast: HPFa	0.947	0.873	0.885	0.866	0.884	0.917	0.856	0.848	0.798
100 µM, coculture fibroblast: HUF	0.869	0.753	0.751	0.6633	0.61	0.5898	0.56455	0.5518	0.5473
100 µM, coculture fibroblast: Hs5	0.863	0.739	0.722	0.665	0.631	0.584	0.581	0.558	0.545
100 µM, coculture fibroblast: Hs27A	0.852	0.828	0.809	0.786	0.781	0.843	0.772	0.765	0.709
100 µM, coculture fibroblast: Hs343T	0.836	0.713	0.648	0.607	0.579	0.549	0.528	0.515	0.509
100 µM, coculture fibroblast: WS1	0.8181	0.715	0.673	0.5949	0.543	0.514	0.488	0.457	0.442
